{
  "source": "PubChem BioAssay AID1347423",
  "about": "(Functional Genomics Laboratory (NCATS/FGL), 2020)",
  "note": "Hit rate of the full screen: of about 52,000 sequences, about 210 (0.4%) were called active.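 Rule for the calls: active = gene whose silencing raises cell survival under the drug, median off-target-corrected z-score across its silencing RNAs 2 or more; inactive = the rest.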 Some of the results follow.",
  "data": [
    {"test": "Resistance to Poly (ADP-Ribose) Polymerase inhibitor: Gene Identification via Genome-wide siRNA Screen", "conditions": "mouse BRCA2 R2336H ES cells, olaparib, CellTiter-Glo viability; active compounds read high", "procedure,_shortened": "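Mouse BRCA2 R2336H ES cells were reverse-transfected with siRNA (20 nM final), treated at 48 h with 500 nM olaparib, and read by CellTiter-Glo after 72 h. Scores: MAD-based z per siRNA, median per gene, seed off-target correction.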", "values": [
      {"sequence": "CCAGGUGUACGUCCUACAATT against Pofut2", "z-score": "inactive: 0.174"},
      {"sequence": "CGCCCUGUUUGGUGAACUUTT against Pcdhga2", "z-score": "inactive: -2.2"},
      {"sequence": "GUGCAAACGGCAAACAUUCTT against 1700001G17Rik", "z-score": "inactive: -1.01"},
      {"sequence": "GGGCUAUCCUUCUGAAUUUTT against Csnk1d", "z-score": "inactive: 1.49"},
      {"sequence": "CGUGAAGGAAACUUUUCAGTT against AI931714", "z-score": "inactive: 0.853"},
      {"sequence": "GGAUAUUGAUUCAGUCAAGTT against Rac2", "z-score": "inactive: -0.165"},
      {"sequence": "CCUUGUUGCUUUCCUAACCTT against 2010002M12Rik", "z-score": "inactive: 1.03"},
      {"sequence": "GGAACCCAUCUCUCAAGCATT against Atp5g1", "z-score": "inactive: -0.643"},
      {"sequence": "GCGGACACUACCACCGUUUTT against 4930477M19", "z-score": "inactive: 0.636"},
      {"sequence": "CCAAUUCUACCUAUUACAGTT against Apxl", "z-score": "inactive: -1.69"},
      {"sequence": "GGUGAAGCGAAUUCUCUACTT against Upb1", "z-score": "inactive: -0.423"},
      {"sequence": "GGGACAUUGUGUUGGACGUTT against 3110031B13Rik", "z-score": "inactive: -0.0333"},
      {"sequence": "CCAGAAUGGCUAAGGGAAATT against LOC433886", "z-score": "inactive: 0.512"},
      {"sequence": "GGUGUUUAAUUGCUCACUATT against BC021523", "z-score": "inactive: -0.71"},
      {"sequence": "CGAAAGCUAAACUAAAAGATT against 2310014H19Rik", "z-score": "inactive: 1.67"},
      {"sequence": "GCGAACGAGACACUUCAAUTT against Pla2g4a", "z-score": "inactive: 0.583"},
      {"sequence": "GGAUUACGAGAACAAAAACTT against Jag1", "z-score": "inactive: 0.758"},
      {"sequence": "GGGAUAAAGAGAGACCCAATT against E030034P13Rik", "z-score": "inactive: 0.0438"},
      {"sequence": "GGCUGAUUAUAUUUUUGGUTT against Ush1g", "z-score": "inactive: -0.0419"},
      {"sequence": "GCUCAACAGCAGUGACGAUTT against Nras", "z-score": "inactive: -0.348"},
      {"sequence": "GAGAAUGCUUCAGUGGUGATT against Pcdha9", "z-score": "inactive: 0.71"},
      {"sequence": "GCUGUUUGAAGCUGAUACCTT against Fads3", "z-score": "inactive: 0.157"},
      {"sequence": "GCAACCAUCGUAGCAGAUCTT against Aaas", "z-score": "inactive: 0.628"},
      {"sequence": "GCUACAAUCUUUUAGGUCUTT against Tcta", "z-score": "inactive: -0.743"},
      {"sequence": "GCCACAAUUUUACUUGGUATT against Ap4s1", "z-score": "inactive: -0.577"},
      {"sequence": "GGCUAUCUACAAAAUGGUGTT against Vsnl1", "z-score": "inactive: -0.64"},
      {"sequence": "GCAGCGAAGAUUUUAAUUCTT against Rerg", "z-score": "inactive: 0.235"},
      {"sequence": "GGUAAUUAUGCUGCUUAUGTT against 6820402O20Rik", "z-score": "inactive: -0.364"},
      {"sequence": "GGAGACUGGAUUUUUGGUATT against Ccr1l1", "z-score": "inactive: 1.2"}
    ]}
  ]
}
